No constants are given. Whether binding was seen depends on the method and setting. Binding seen in cells or lysates may run through a third protein. Some binding calls cover weakened binding; strength is not graded here.
What was measured:
[1] = target: desmin (rat (endogenous in isolated cardiac myocytes)) (UniProt P48675); experiment: co-IP; lysates of isolated cardiac myocytes (50 ug protein, RIPA buffer, overnight 4 C, protein A/G magnetic beads); IP with anti-desmin or anti-Cx43, blots with anti-desmin or anti-Cx43
[2] = target: desmin overexpressed from the MLV-desmin-EGFP plasmid (UniProt P48675); experiment: co-IP; lysates of desmin-overexpressing (OV) cultured skeletal myoblasts (RIPA buffer, protein A/G magnetic beads); IP with anti-desmin, blots with anti-Cx43 and anti-ZO-1; IgG as negative control

Sequences of proteins named here, by UniProt entry; tags and fusion partners are left off.
UniProt P48675: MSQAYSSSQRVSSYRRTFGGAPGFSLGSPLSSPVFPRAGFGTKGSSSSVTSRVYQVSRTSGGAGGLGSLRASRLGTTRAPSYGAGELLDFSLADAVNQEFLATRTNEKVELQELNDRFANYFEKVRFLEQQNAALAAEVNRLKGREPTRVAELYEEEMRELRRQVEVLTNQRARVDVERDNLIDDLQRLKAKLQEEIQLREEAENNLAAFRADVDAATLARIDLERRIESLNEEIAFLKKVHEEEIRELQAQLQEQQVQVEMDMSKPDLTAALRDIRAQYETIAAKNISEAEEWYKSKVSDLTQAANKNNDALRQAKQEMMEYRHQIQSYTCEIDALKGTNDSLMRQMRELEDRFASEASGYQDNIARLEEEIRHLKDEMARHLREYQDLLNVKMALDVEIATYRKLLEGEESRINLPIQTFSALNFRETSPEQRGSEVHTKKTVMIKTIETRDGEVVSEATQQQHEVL
UniProt P08050: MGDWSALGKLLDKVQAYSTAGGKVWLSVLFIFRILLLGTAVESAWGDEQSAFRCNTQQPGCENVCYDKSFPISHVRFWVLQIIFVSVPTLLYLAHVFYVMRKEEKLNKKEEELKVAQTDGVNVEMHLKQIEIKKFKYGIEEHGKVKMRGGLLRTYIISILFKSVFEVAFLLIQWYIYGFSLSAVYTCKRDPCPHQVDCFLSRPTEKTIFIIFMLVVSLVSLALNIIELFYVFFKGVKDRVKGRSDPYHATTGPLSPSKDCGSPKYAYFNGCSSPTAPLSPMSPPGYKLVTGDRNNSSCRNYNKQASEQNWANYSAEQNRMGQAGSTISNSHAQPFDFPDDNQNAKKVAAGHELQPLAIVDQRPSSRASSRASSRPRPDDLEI
UniProt A0A0G2K2P5: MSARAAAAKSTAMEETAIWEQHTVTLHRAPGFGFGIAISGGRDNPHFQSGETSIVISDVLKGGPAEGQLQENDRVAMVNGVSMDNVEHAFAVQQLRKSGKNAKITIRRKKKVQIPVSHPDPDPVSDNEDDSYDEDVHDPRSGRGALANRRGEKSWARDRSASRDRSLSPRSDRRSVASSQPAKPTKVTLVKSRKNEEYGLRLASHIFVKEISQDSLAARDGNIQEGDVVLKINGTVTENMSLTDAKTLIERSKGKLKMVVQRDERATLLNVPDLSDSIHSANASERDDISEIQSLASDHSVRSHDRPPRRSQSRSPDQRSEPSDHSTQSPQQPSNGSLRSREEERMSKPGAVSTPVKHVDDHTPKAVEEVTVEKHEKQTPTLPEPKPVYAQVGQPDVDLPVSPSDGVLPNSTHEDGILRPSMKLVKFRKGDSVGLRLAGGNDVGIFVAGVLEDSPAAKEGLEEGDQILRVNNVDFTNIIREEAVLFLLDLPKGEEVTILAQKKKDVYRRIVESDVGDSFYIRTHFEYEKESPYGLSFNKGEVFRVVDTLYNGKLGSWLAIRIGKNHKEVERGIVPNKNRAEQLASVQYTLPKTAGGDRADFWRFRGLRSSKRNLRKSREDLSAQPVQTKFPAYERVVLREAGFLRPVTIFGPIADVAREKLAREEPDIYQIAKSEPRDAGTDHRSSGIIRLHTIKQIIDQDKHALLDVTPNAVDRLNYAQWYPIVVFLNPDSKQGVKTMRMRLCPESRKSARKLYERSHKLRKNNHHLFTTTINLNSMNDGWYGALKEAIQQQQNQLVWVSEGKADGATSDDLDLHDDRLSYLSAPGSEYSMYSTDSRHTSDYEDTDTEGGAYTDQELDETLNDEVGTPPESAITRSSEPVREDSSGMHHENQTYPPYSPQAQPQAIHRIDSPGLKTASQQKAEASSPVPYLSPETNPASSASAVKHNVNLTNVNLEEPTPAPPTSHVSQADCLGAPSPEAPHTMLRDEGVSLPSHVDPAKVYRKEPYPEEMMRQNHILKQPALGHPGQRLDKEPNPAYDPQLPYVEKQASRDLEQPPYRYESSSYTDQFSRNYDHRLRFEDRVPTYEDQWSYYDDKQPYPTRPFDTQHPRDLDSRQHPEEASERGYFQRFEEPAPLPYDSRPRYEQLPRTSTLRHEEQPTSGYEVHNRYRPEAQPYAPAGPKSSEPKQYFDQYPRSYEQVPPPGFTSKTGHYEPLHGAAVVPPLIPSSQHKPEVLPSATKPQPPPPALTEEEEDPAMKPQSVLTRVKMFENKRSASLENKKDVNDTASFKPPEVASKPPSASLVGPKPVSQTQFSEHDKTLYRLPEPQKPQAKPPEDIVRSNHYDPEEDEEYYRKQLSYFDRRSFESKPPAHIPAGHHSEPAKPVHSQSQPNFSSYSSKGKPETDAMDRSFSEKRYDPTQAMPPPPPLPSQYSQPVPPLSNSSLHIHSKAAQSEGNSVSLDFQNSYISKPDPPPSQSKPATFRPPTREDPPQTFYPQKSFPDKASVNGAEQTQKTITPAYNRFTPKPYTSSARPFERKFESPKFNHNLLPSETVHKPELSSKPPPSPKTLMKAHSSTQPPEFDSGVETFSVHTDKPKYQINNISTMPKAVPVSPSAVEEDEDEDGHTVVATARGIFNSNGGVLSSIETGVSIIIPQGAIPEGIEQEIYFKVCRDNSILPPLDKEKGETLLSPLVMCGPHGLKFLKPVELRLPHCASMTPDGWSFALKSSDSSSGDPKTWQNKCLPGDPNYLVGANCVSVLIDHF

binding [1]	binding [2]	Substance
binds	binds	connexin 43 (from UniProt P08050 1-382)
	binds	zonula occludens-1 (from UniProt A0A0G2K2P5 1-1765)

Reference: PMC8275391
